Source: PubChem BioAssay AID2685 (National Center for Advancing Translational Sciences (NCATS), 2010)
This is one part of the list. These are further read-outs of the screen, such as a control signal, another cell line or another target. No call is given for them. The list favours compounds with an active or inconclusive main result. Potencies come from curve fits of mixed quality, noted in brackets.

Experiment: qHTS Assay for Lipid Storage Modulators in Drosophila S3 Cells;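 on cell number change: cells counted by Cell Tracker Red CMTPX staining in the red channel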
Details: BODIPY lipid droplet fluorescence, 18-24 h; for cell number change: measured here: cell count max response, cells fed with added oleic acid
How it was run: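 Drosophila S3 cells loaded with oleic acid (400 uM, as added) and compounds at several concentrations; lipid droplets imaged by 488-nm laser-scanning cytometry, 500–530 nm intensity and object ratio to cell channel. Percent activity normalized to 20 uM Triacsin C.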

[1] = measured here: lipid fluorescence (Fed channel) AC50, cells fed with added oleic acid
[2] = measured here: cell number channel AC50, cells fed with added oleic acid

Row | Structure (SMILES) | cell number change [%] | AC50 [1] | AC50 [2]
1 | NC(=O)C(NC(=O)OCc1ccccc1)c1ccccc1 (stereo unspecified) | 3.96 | 0.651 µM [rising, full curve, poor fit] | –
2 | Cc1cnc(NC(=O)c2ccc3c(c2)OCCO3)s1 | -4.06 | – | –
3 | CCOC(=O)c1c(NC(=O)Cn2cnc3sc(C)c(-c4ccccc4)c3c2=O)sc(C)c1C | – | 0.82 µM [rising, partial curve] | –
4 | O=C(Cc1ccc(-c2ccccc2)cc1)Nc1ncccc1O | -12.9 | 0.58 µM [rising, single point] | 0.517 µM [rising, single point]
5 | CSc1ccc(/C=N/NC(=O)C[n+]2ccccc2)cc1 | -1.06 | – | –
6 | O=C1CSC(c2ccccn2)N1c1ccc2ccccc2c1 (stereo unspecified) | -8.56 | – | –
7 | O=c1c2c(nc3c(-c4ccc(Cl)cc4)c[nH]n13)CCC2 | 36.9 | 0.651 µM [falling, single point] | 13 µM [rising, single point]
8 | O=C(c1ccco1)N1CCC(c2nc3c(nnn3Cc3c(Cl)cccc3Cl)c(=O)[nH]2)CC1 | 1.26 | – | –
9 | CCN(CC)C(=O)Cn1c(=O)n(CC(=O)N2CCCCC2)c(=O)c2sccc21 | -1.18 | 6.51 µM [rising, single point] | –
10 | COC(=O)C1CCN(S(=O)(=O)c2cn(C)c(=O)n(C)c2=O)CC1 | -28 | 3.66 µM [falling, full curve] | 3.66 µM [falling, full curve, poor fit]
11 | N=C1C(c2nc3ccccc3[nH]2)=C(O)CN1c1ccc(F)cc1 | -14.4 | 0.0291 µM [falling, full curve, poor fit] | –
12 | COc1ccc(S(=O)(=O)Cc2ccc(C(=O)N3CCN(c4cc(Cl)ccc4C)CC3)o2)cc1 | 11 | – | 0.517 µM [rising, full curve, poor fit]
13 | O=C(CSc1nnnn1-c1ccc(F)cc1)Nc1ccccc1F | -2.12 | 2.31 µM [rising, full curve] | –
14 | CCOC(=O)CSC1=C(C#N)C(c2ccc(C)cc2)C(C(=O)OC)C(=O)N1 (stereo unspecified) | – | 0.82 µM [rising, full curve] | –
15 | Cc1cc(C(=O)Nc2ccccc2C)c2ccccc2n1 | -2.19 | 20.6 µM [rising, partial curve] | –
16 | COc1ccc(C(=O)NN=C2CCCC2)c(OC)c1 | -2.97 | – | –
17 | Cc1nn(C)c(C(=O)NCc2ccc(Cl)cc2)c1Cl | -49.4 | 5.17 µM [falling, full curve] | 9.2 µM [falling, partial curve]
18 | CN(C(=O)Cn1cc([N+](=O)[O-])ccc1=O)C1CCCCC1 | 11 | 0.103 µM [rising, full curve, poor fit] | –
19 | Nc1nc(N2CCOCC2)nc(N(c2ccccc2)c2ccccc2)n1 | 5.18 | – | –
20 | CCCCn1c(SCC(=O)OCC)nnc1-c1ccoc1C | -22.9 | – | 0.82 µM [falling, full curve, poor fit]

Row | Structure (SMILES) | cell number change [%] | AC50 [1] | AC50 [2]
21 | Cc1ccc(C(=O)NCC(=O)OCCCOC(=O)CNC(=O)c2ccc(C)c(C)c2)cc1C | -32.6 | – | 18.4 µM [falling, single point]
22 | CS(=O)(=O)N1CCN(c2ccc(NC(=O)CSc3ccc(Cl)cc3)cc2)CC1 | 45.1 | 0.651 µM [rising, partial curve, poor fit] | 1.84 µM [rising, partial curve]
23 | CC(C)NC(=O)C1=NN(c2ccccc2)C(=O)CC1 | – | 6.51 µM [rising, single point] | –
24 | CCOC(=O)CN1C(=O)/C(=C/c2ccc(Cl)cc2)Oc2ccccc21 | 31.1 | 3.26 µM [rising, partial curve] | 3.26 µM [rising, partial curve]
25 | CCOC(=O)C(=O)NCC(c1cccs1)S(=O)(=O)c1ccc(F)cc1 (stereo unspecified) | -32 | 14.6 µM [falling, partial curve] | 20.6 µM [falling, single point]
26 | CC(C)CN(C(=O)CSc1ncnc2sccc12)C1CCS(=O)(=O)C1 (stereo unspecified) | 5.95 | 14.6 µM [rising, partial curve] | –
27 | CCCc1nnc(NC(=O)C2CCN(C(=O)C3CC(=O)N(c4ccc(C)cc4)C3)CC2)s1 (stereo unspecified) | 8.06 | 0.00731 µM [rising, full curve, poor fit] | –
28 | Cc1cc2c(cc(C(=O)OC(C(=O)NC3CCCCC3)C(C)C)n2C)o1 (stereo unspecified) | – | 14.6 µM [falling, partial curve, poor fit] | –
29 | COc1cc2[nH]c(=S)nc(NCCc3ccc(C)cc3)c2cc1OC | -6.85 | 0.92 µM [rising, full curve, poor fit] | –
30 | COCCCN(Cc1cccs1)S(=O)(=O)c1csc(C(N)=O)c1 | -17.1 | 29.1 µM [rising, single point] | –
31 | Cc1cc(NC(=O)CSc2nc3c(c(=O)n(C)c(=O)n3C)n2C(C)C)no1 | 13.9 | – | –
32 | Cn1c(=O)n(CCN2CCOCC2)c(=O)c2c1nc1n2CCCN1c1ccccc1 | 9.69 | – | –
33 | Cc1cc([N+](=O)[O-])cc2c1NC(=O)C2(O)N1CCCCCC1 (stereo unspecified) | 5.79 | 0.206 µM [rising, full curve, poor fit] | –
35 | CC(=O)c1ccc(N2CCN(C(=O)c3cc(-c4ccc5c(c4)OCO5)nc4ccccc34)CC2)cc1 | – | 0.92 µM [rising, full curve] | 1.46 µM [rising, full curve, poor fit]
36 | COc1cc2nc(Nc3ccc(C)c(C)c3)nc(N)c2cc1OC | 18.1 | 29.1 µM [rising, single point] | –
37 | Cc1cccc(N2C(=O)CC(N3CCN(C(=O)c4ccccc4)CC3)C2=O)c1 (stereo unspecified) | -23.4 | 16.4 µM [falling, partial curve] | 0.517 µM [falling, full curve, poor fit]
38 | COC(=O)C1=C(N)Oc2cc(C)n(CC3CCCO3)c(=O)c2C1c1ccc(Cl)c(Cl)c1 (stereo unspecified) | – | 6.51 µM [rising, single point] | 0.517 µM [rising, single point]
39 | Cc1noc(C)c1CN1C(=O)c2cccc([N+](=O)[O-])c2C1=O | 16.2 | – | –
40 | COc1ccc(-n2nnnc2S(=O)(=O)Cc2ccc(C(=O)O)cc2)cc1 | -154 | 29.1 µM [falling, single point] | 29.1 µM [falling, single point]

3 entries drawn at random from those above, as already listed:
Row | Structure (SMILES) | cell number change [%] | AC50 [1] | AC50 [2]
25 | CCOC(=O)C(=O)NCC(c1cccs1)S(=O)(=O)c1ccc(F)cc1 (stereo unspecified) | -32 | 14.6 µM [falling, partial curve] | 20.6 µM [falling, single point]
18 | CN(C(=O)Cn1cc([N+](=O)[O-])ccc1=O)C1CCCCC1 | 11 | 0.103 µM [rising, full curve, poor fit] | –
32 | Cn1c(=O)n(CCN2CCOCC2)c(=O)c2c1nc1n2CCCN1c1ccccc1 | 9.69 | – | –

Next part.

Row | Structure (SMILES) | cell number change [%] | AC50 [1] | AC50 [2]
41 | C=CCn1c(-c2cccn(Cc3ccccc3)c2=O)n[nH]c1=S | 18.7 | – | –
42 | Cc1cccc2cc(-c3nc4ccc(C(=O)O)cc4[nH]3)c(=O)oc12 | -73.9 | – | 29.1 µM [falling, single point]
43 | Cc1nonc1CC(=O)NC1CC(C)(C)Cc2c1cnn2-c1ccc(F)cc1 (stereo unspecified) | -5.56 | – | –
44 | CCCc1cc(C(=O)Cc2ccc(F)cc2)c(O)cc1O | -109 | – | 6.51 µM [falling, partial curve, poor fit]
45 | O=C(N/N=C/C(Br)=C/c1ccccc1)NC1CCCCC1 | -48.6 | 12.6 µM [falling, partial curve, poor fit] | 22.4 µM [falling, partial curve, poor fit]
46 | CCOc1ccc(C(=O)NNC(=O)CN2C(=O)NC3(CCCC3)C2=O)cc1 | 1 | 29.1 µM [falling, single point] | –
47 | CN1c2ccccc2C(C)(C)C12C=Nc1c(ccc3ccccc13)O2 (stereo unspecified) | -72.4 | 9.2 µM [falling, partial curve] | 10.3 µM [falling, partial curve]
48 | CCOC(=O)c1[nH]c2ccc(OC)cc2c1NC(C)=O | – | 0.206 µM [rising, partial curve, poor fit] | –
49 | Cc1c(CCC(=O)NCC(=O)O)c(=O)oc2cc3occ(-c4ccccc4)c3cc12 | – | – | 2.06 µM [falling, single point]
50 | Cc1ccc(-c2nc3cccnc3s2)cc1NS(=O)(=O)c1ccc2c(c1)CCCC2 | – | 3.66 µM [rising, partial curve] | –
51 | CC(C)=NOc1nc(N(C)C)nc(N2CCOCC2)n1 | -14.6 | – | –
52 | COc1ccc(NC(=O)COc2cccc3c2CCNC3=O)cc1 | – | 2.59 µM [falling, single point] | –
53 | Cc1ccc(S(=O)(=O)N(C)C)cc1-n1c(SCC(=O)Nc2ccc(F)cc2Cl)nc2ccccc2c1=O | -50 | 0.366 µM [falling, partial curve, poor fit] | 2.06 µM [rising, partial curve]
54 | O=C(Cn1c(C(F)(F)F)nc2ccccc21)N1CCCC1 | -19.2 | 6.51 µM [falling, single point] | 0.0058 µM [falling, full curve, poor fit]
55 | CC(C)(C)C(=O)Nc1cccc2[nH]ncc12 | 14.7 | 0.00517 µM [rising, full curve, poor fit] | 0.0058 µM [rising, full curve, poor fit]
56 | COC(=O)c1ccccc1NS(C)(=O)=O | -33.8 | 0.0206 µM [falling, full curve, poor fit] | 5.8 µM [falling, full curve, poor fit]
57 | O=S(=O)(Nc1ccc2cn[nH]c2c1)c1ccccc1 | 32.4 | 5.8 µM [rising, partial curve, poor fit] | 0.164 µM [rising, full curve, poor fit]
58 | Cc1csc(SCC(=O)c2ccc(S(=O)(=O)N3CCOCC3)cc2)n1 | -3.7 | 0.13 µM [rising, full curve, poor fit] | –
